Consider one substance from publication PMC9929037.

The chains behind the UniProt entries cited, without tags or fusion partners. Where a name states a change or a piece, a line headed by the entry shows the natural chain unless it says otherwise.
UniProt A0A3B5ZSS4: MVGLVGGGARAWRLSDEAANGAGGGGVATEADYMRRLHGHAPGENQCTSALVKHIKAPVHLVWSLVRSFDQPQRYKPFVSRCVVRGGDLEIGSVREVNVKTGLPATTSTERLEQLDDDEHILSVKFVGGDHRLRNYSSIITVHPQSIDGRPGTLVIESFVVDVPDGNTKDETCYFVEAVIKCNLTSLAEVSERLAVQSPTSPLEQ

Assay [1] concerns the target cLUC-TaPP2C-7A (Triticum aestivum (bread wheat)). The assay can be described thus: split reporter; LCI of cLUC-TaPP2C-7A with nLUC-TaPYL-1D in N. benthamiana leaves with a third protein co-expressed (TN1-GFP, tn1-GFP or GFP empty vector); relative luminescence, GFP EV combination set to 1.
For assay [2] the target is unchanged. The assay can be described thus: split reporter; firefly luciferase complementation imaging (LCI); cLUC and nLUC fusions co-expressed in N. benthamiana leaves by Agrobacterium GV3101 infiltration; luminescence imaged after 36-48 h.

No constants are given. Whether binding was seen depends on the method and setting. In cells and extracts the contact can be indirect. Binding calls can cover weak binding; strength is not graded here.

In the case of “nLUC-TaPYL-1D (from UniProt A0A3B5ZSS4) (receptor)”, the binding entry in assay [1] and in assay [2] was “binds” each time.
